Experimental data published in publication PMC5155539.
No constants are given. Whether binding was seen depends on the method and setting. In cells and extracts the contact can be indirect. These calls come from enrichment with a bait or labelling near it, and not all partners need be listed. For some assays here: Tags and fused reporters may be left off the sequences shown.

Key:
[1] = molecular target: T1, ALADIN (endogenous) (human (endogenous in NCI-H295R)) (UniProt Q9NRG9); assay: affinity purification with mass spectrometry; anti-ALADIN on Protein G UltraLink resin sepharose beads, NCI-H295R lysate (500 ug protein), normal mouse IgG as control; bound overnight; eluate analysed by tandem mass spectrometry; conducted once
T1 sequence: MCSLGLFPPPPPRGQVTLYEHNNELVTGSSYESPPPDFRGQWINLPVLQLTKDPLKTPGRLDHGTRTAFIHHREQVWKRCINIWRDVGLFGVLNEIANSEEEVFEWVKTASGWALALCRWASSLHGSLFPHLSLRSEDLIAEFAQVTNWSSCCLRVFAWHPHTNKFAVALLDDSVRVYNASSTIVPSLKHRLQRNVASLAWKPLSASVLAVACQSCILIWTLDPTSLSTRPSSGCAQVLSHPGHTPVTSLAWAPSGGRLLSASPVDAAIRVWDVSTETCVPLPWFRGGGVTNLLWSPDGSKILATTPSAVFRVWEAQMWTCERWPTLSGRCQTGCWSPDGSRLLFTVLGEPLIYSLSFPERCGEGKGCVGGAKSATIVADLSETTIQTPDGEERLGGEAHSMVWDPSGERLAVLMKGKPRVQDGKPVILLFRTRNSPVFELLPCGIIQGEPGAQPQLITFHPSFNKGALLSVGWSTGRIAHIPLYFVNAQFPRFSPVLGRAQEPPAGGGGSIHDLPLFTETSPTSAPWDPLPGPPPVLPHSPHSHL

[2] = molecular target: T2, GFP-ALADIN fusion protein (human) (UniProt Q9NRG9); assay: affinity purification with mass spectrometry; GFP-Trap_A agarose beads, whole cell lysates (500 ug protein) of NCI-H295R cells expressing GFP-ALADIN, GFP-expressing cells as control; bound overnight at 4°C; eluate analysed by tandem mass spectrometry; repeated three times
T2 sequence: T1 sequence

- binding [1]: binds
- binding [2]: binds
B1: progesterone receptor membrane component 2 (PGRMC2), endogenous (protein, UniProt O15173 1-223)
chain: MAAGDGDVKLGTLGSGSESSNDGGSESPGDAGAAAEGGGWAAAALALLTGGGEMLLNVALVALVLLGAYRLWVRWGRRGLGAGAGAGEESPATSLPRMKKRDFSLEQLRQYDGSRNPRILLAVNGKVFDVTKGSKFYGPAGPYGIFAGRDASRGLATFCLDKDALRDEYDDLSDLNAVQMESVREWEMQFKEKYDYVGRLLKPGEEPSEYTDEEDTKDHNKQD
